Test systems include FLJ43980 (human); FLOT2 (human); FLT3LG (human); FN3KRP (human); FNBP1 (human); FOXP1 (human); FREQ (human); FRMD8 (human); FTL (human); FUNDC2 (human).
What all share (assay): protein microarray (ProtoArray v5.0), streptavidin-Alexa Fluor 647
Common to all, as to details: 3'-biotin; 20 mM Tris (pH 7.5), 5 mM MgCl2, 100 mM KCl, 0.1% Tween-20, A/T-rich and random oligonucleotide blockers; temperature not stated; high values mean tight binding

The other results are listed elsewhere or left out.

As for “GGGGACAGGGGTATGGGGAGGGG [G4-3 biotinylated (CtG)]”, the binding signal in the test on FLJ43980 (human) is -0.336 z-score; with FLOT2 (human) it was -0.324 z-score; in the test with FLT3LG (human), -0.312 z-score; with FN3KRP (human) it was -0.315 z-score; in the test with FNBP1 (human) it was -0.326 z-score; with FOXP1 (human), -0.33 z-score. Further, the binding signal in the test on FREQ (human) is -0.333 z-score; in the test on FRMD8 (human), -0.324 z-score; in the test on FTL (human), -0.327 z-score; in the test on FUNDC2 (human), -0.332 z-score.

The values are drawn from PMC5996148.
